Experimental data as given in the supplement of paper PMC10849652.
The list shows a part of the results.

Chains of the proteins cited; added tags and fusions are not shown. Lines headed by an entry give the natural chain unless they say otherwise; changes in a name come on top.
UniProt O60779: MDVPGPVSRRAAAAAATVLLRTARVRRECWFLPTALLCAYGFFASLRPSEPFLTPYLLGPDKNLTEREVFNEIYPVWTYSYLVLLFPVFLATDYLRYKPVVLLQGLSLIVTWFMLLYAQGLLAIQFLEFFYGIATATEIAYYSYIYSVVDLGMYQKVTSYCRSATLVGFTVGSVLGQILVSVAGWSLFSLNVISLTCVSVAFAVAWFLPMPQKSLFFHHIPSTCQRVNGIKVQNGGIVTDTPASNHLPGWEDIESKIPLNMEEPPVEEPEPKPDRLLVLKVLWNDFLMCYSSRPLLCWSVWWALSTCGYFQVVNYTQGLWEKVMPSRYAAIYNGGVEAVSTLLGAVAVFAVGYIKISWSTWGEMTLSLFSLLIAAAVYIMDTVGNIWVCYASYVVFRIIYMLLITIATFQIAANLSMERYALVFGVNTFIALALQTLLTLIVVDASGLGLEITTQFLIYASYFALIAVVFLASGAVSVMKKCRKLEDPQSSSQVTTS
UniProt Q99963: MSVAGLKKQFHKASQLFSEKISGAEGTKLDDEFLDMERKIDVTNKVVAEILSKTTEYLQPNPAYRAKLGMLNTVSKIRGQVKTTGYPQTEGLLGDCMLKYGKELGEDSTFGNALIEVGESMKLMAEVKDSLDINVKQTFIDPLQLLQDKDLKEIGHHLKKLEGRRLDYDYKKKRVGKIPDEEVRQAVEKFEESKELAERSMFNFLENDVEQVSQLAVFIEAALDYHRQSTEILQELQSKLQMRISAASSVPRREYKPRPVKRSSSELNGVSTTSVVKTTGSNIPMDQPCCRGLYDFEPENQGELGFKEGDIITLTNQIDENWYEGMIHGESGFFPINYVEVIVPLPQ
UniProt O43166: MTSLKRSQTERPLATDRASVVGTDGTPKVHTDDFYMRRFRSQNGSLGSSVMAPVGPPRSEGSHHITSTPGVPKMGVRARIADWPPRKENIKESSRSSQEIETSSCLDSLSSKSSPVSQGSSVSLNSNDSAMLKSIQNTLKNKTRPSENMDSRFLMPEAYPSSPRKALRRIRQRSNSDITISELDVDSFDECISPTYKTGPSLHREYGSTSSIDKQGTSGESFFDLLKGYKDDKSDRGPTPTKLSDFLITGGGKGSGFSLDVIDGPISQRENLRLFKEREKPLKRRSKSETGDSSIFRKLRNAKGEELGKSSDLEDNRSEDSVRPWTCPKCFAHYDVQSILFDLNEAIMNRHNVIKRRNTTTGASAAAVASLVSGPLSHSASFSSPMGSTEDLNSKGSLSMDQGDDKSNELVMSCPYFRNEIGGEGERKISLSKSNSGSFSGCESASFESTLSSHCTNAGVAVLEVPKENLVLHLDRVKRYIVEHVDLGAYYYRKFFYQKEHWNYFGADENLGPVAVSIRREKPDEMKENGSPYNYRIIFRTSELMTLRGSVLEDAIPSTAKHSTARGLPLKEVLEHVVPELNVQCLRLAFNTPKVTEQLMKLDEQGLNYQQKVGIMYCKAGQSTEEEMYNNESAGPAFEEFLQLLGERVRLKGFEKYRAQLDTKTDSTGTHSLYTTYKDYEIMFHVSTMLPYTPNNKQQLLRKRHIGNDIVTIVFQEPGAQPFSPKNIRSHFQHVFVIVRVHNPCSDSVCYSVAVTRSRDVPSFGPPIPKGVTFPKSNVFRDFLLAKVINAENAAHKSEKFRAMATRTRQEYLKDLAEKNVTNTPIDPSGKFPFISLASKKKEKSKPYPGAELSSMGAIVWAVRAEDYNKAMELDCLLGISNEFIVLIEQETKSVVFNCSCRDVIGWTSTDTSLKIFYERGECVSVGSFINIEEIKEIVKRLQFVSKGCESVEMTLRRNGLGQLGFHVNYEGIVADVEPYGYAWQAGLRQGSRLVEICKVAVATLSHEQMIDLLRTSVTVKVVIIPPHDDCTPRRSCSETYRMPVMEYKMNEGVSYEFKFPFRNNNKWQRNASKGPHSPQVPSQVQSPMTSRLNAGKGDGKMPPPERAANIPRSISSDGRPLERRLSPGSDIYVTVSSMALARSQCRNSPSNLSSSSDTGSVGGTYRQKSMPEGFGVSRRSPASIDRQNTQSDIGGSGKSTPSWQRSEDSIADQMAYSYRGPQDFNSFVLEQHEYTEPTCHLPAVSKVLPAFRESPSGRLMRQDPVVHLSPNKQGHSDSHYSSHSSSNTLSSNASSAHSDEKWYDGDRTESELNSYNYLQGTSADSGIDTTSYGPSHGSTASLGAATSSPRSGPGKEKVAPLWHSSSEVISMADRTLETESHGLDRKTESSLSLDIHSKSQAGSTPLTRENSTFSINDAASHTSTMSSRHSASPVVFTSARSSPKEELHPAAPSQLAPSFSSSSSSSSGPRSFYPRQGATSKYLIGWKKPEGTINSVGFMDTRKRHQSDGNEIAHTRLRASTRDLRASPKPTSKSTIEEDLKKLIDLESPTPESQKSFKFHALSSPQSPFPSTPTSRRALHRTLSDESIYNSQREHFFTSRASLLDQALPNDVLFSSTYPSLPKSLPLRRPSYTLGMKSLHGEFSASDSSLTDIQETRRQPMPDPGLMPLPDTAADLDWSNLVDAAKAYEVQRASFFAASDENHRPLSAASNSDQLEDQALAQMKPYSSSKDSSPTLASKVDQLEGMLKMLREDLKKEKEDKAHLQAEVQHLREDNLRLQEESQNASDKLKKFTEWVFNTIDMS
UniProt P41440: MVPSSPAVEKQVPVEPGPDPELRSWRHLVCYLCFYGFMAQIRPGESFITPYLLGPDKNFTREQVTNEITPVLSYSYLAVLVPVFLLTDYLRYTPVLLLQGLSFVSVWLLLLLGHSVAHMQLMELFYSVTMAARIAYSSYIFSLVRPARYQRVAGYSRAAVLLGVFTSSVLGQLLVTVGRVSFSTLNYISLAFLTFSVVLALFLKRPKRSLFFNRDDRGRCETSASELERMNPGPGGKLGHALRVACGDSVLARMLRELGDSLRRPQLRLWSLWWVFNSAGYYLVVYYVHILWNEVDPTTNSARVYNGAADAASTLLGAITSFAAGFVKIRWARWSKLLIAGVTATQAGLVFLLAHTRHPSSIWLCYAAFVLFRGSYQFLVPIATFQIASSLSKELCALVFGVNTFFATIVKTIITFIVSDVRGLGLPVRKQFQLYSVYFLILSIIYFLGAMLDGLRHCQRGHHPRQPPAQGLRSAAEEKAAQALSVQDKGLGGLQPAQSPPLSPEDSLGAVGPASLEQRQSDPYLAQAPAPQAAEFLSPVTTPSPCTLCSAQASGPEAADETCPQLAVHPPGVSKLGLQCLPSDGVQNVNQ
UniProt Q96NB2: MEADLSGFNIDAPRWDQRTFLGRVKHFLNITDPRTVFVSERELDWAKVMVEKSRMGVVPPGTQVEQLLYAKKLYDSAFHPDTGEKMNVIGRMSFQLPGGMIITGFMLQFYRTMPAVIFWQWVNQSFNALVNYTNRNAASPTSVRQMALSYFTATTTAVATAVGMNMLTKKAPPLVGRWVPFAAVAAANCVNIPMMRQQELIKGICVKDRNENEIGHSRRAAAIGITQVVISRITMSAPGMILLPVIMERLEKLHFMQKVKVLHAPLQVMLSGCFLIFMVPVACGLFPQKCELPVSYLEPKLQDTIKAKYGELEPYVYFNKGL
UniProt O95470: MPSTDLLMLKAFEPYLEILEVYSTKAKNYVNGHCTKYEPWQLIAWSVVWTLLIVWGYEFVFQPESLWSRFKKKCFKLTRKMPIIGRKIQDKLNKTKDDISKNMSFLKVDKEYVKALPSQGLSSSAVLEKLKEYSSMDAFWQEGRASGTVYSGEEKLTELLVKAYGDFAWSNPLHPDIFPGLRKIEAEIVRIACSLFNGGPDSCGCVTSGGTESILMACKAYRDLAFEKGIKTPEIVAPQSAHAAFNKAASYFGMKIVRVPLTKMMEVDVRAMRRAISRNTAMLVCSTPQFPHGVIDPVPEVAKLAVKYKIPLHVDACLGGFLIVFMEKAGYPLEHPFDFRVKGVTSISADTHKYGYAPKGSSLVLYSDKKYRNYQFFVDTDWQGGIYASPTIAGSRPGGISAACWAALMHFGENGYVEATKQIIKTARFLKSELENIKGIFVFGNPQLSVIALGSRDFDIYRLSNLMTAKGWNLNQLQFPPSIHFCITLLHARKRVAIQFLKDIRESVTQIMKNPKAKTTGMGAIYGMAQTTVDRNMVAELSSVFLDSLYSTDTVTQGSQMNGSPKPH
UniProt Q96EQ0: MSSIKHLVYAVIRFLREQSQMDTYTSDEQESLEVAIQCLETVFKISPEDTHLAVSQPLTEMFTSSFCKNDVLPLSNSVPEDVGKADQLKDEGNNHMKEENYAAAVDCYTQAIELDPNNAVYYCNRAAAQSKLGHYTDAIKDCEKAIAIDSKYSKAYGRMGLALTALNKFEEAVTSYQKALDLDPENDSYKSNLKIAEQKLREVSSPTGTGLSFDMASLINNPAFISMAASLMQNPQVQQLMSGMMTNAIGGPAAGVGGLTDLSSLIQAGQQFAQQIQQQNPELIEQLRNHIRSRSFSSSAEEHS
UniProt P23246: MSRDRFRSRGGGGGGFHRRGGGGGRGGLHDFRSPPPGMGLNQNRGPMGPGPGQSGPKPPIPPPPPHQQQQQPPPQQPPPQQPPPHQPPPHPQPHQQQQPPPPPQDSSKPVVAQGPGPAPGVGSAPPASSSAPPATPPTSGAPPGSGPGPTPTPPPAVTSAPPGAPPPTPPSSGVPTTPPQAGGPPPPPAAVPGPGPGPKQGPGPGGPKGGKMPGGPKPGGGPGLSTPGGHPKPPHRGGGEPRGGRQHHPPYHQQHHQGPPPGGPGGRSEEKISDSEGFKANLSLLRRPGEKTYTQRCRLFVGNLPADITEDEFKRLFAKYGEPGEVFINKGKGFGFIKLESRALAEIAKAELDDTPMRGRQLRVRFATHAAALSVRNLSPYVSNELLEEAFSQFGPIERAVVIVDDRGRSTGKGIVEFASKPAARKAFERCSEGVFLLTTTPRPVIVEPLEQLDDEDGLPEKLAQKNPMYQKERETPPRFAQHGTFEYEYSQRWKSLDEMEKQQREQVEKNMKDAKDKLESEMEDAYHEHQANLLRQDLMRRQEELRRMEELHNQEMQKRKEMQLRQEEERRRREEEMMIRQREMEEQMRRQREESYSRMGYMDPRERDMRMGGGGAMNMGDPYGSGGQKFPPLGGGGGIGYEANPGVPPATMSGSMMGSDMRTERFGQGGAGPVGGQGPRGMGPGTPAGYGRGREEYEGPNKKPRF
UniProt O60239: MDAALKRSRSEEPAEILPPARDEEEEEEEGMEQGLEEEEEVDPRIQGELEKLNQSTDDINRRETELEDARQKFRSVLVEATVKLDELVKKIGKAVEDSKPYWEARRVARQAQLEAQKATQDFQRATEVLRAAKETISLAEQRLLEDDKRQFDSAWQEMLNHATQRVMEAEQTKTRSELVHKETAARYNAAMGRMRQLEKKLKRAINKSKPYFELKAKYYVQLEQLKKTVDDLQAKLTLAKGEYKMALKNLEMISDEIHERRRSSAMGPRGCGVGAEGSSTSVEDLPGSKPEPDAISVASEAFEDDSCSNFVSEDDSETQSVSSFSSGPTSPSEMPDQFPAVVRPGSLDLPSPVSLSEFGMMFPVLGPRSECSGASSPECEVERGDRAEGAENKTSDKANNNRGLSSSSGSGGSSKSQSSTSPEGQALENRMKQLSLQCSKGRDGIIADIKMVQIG

What was measured:
Assay in all cases: log2 fold change, soluble protein after heating vs DMSO (PISA); higher = thermal stabilisation; K562 lysate, 10 uM; active = over 0.2 and 3.5 SD of the protein, either way, in both replicates (recomputed)
[1] = compound: C1=CC=C(C=C1)[C@H](COC2=CC3=C(C=C2)NC(=O)N3)NC(=O)C4=CC=CN(C4=O)CC5=CC(=C(C=C5)F)F
Method in brief: (§1)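 Values give the log-two fold change in thermal stability against solvent controls, from duplicates. Crude K562 extract at 1 mg/mL protein, made by dounce homogenisation in PBS pH 7.4 with 1 mM MgCl2, was treated with 10 μM compound for 30 min. After 3 min heating across 48°C-58°C, aliquots were pooled, adjusted to 0.5% NP-40 at 4°C and centrifuged at 21,000xg for 90 min. The supernatant was measured by TMTpro 16plex LC-MS/MS with channel sums equalised.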

[2] = compound: CC1=C(SC2=C1C(=N[C@H](C3=NN=C(N32)C)CC(=O)N)C4=CC=C(C=C4)Cl)C
Method in brief: as §1

[3] = compound: Cc1sc2c(c1C)C(c1ccc(Cl)cc1)=N[C@@H](CC(=O)OC(C)(C)C)c1nnc(C)n1-2
Method in brief: as §1

[4] = compound: c1ccc([C@@H]2C[C@H]2NC2CCNCC2)cc1
Method in brief: as §1

[5] = compound: CC1=C2C(=CC=C1)N=C(N(C2=O)C3=CC=CC=C3C)CN4C=NC5=C(N=CN=C54)N
Method in brief: as §1

Measured: log2 fold change

SH2B1 (UniProt Q9NRF2)
inactive: [1] 0.198 | [2] 0.332 | [3] -0.007 | [4] 0.081

SERPINH1 (UniProt P50454)
inactive: [1] 0.01 | [2] 0.021 | [5] -0.003 | [3] -0.01 | [4] 0

SLC19A2 (UniProt O60779)
inactive: [1] -0.147 | [2] 0.094 | [3] -0.01 | [4] -0.001

SERPINB5 (UniProt P36952)
inactive: [1] -0.14 | [2] -0.037 | [3] -0.129 | [4] -0.029

SIMC1 (UniProt Q8NDZ2)
inactive: [1] -0.29 | [2] 0.138 | [5] 0.014 | [4] -0.121

SH3GL3 isoform 3 (UniProt Q99963)
inactive: [1] 0.024 | [2] 0.033 | [5] 0.133 | [3] -0.169 | [4] -0.416

SERPINA12 (UniProt Q8IW75)
inactive: [1] -0.166 | [2] 0.233 | [3] -0.083

SIAH2 (UniProt O43255)
inactive: [1] 0.065 | [2] 0.162 | [5] -0.015 | [4] 0.026

SERAC1 (UniProt Q96JX3)
inactive: [1] -0.122 | [2] 0.145 | [3] 0.11 | [4] 0.065

SIPA1L1 (UniProt O43166)
inactive: [1] 0.135 | [2] -0.025 | [5] -0.013 | [4] -0.038

SHC1 isoform 6 (UniProt P29353)
inactive: [1] 0.019 | [2] 0.006 | [5] 0.056 | [3] 0.087 | [4] 0.25

SETD2 (UniProt Q9BYW2)
inactive: [1] -0.076 | [2] -0.001 | [5] 0.046 | [3] -0.018 | [4] -0.061

SHOC2 (UniProt Q9UQ13)
inactive: [1] 0.006 | [2] 0.02 | [5] -0.019 | [3] -0.048 | [4] -0.082

SIRT6 (UniProt Q8N6T7)
inactive: [1] 0.06 | [2] 0.045 | [5] -0.006 | [3] 0.102 | [4] -0.05

SLC1A5 (UniProt Q15758)
inactive: [1] 0.031 | [2] -0.017 | [5] -0.014 | [3] -0.049 | [4] -0.071

SERPINA7 (UniProt P05543)
inactive: [1] -0.105 | [2] -0.11 | [5] 0.137 | [4] 0

SLC19A1 (UniProt P41440)
inactive: [1] 0.017 | [2] -0.022 | [5] -0.056 | [3] -0.12 | [4] -0.176

SFXN2 (UniProt Q96NB2)
inactive: [1] -0.021 | [2] -0.02 | [5] 0.022 | [3] 0.006 | [4] -0.039

SGPL1 (UniProt O95470)
inactive: [1] -0.019 | [2] 0.003 | [5] 0.024 | [3] -0.107 | [4] -0.061

SGTB (UniProt Q96EQ0)
inactive: [1] -0.001 | [2] -0.059 | [5] 0.008 | [3] -0.046 | [4] 0.065

SFPQ (UniProt P23246)
inactive: [1] -0.03 | [2] 0.009 | [5] 0.024 | [3] -0.002 | [4] 0.014

SH3BP5 (UniProt O60239)
inactive: [1] 0.035 | [2] -0.045 | [5] -0.043 | [3] -0.032 | [4] 0.013

SETMAR (UniProt Q53H47)
inactive: [1] 0.035 | [2] 0.023 | [5] 0.025 | [3] -0.024 | [4] -0.014

2 records drawn at random from those above, as already listed:
SETMAR (UniProt Q53H47)
inactive: [1] 0.035 | [2] 0.023 | [5] 0.025 | [3] -0.024 | [4] -0.014

SLC19A2 (UniProt O60779)
inactive: [1] -0.147 | [2] 0.094 | [3] -0.01 | [4] -0.001
